In the supplement of paper PMC12819154, “High-throughput peptide-centric local stability assay extends protein–ligand identification to membrane proteins, tissues and bacteria” (Nature Structural & Molecular Biology, 2025) one finds log2 fold change data, which are given here for 4 targets.

The chains behind the UniProt entries cited, without tags or fusion partners. Where a name states a change or a piece, a line headed by the entry shows the natural chain unless it says otherwise.
UniProt Q9QWK4: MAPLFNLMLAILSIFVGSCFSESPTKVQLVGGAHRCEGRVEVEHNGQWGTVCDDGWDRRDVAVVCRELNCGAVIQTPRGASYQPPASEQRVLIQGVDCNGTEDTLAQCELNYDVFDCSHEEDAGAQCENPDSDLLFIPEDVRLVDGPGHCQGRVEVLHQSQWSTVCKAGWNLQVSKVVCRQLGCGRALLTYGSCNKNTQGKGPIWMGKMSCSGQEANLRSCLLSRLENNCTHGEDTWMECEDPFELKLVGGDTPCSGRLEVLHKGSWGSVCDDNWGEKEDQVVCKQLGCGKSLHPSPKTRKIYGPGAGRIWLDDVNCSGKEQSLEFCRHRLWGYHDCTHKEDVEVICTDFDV
UniProt Q9QWY8: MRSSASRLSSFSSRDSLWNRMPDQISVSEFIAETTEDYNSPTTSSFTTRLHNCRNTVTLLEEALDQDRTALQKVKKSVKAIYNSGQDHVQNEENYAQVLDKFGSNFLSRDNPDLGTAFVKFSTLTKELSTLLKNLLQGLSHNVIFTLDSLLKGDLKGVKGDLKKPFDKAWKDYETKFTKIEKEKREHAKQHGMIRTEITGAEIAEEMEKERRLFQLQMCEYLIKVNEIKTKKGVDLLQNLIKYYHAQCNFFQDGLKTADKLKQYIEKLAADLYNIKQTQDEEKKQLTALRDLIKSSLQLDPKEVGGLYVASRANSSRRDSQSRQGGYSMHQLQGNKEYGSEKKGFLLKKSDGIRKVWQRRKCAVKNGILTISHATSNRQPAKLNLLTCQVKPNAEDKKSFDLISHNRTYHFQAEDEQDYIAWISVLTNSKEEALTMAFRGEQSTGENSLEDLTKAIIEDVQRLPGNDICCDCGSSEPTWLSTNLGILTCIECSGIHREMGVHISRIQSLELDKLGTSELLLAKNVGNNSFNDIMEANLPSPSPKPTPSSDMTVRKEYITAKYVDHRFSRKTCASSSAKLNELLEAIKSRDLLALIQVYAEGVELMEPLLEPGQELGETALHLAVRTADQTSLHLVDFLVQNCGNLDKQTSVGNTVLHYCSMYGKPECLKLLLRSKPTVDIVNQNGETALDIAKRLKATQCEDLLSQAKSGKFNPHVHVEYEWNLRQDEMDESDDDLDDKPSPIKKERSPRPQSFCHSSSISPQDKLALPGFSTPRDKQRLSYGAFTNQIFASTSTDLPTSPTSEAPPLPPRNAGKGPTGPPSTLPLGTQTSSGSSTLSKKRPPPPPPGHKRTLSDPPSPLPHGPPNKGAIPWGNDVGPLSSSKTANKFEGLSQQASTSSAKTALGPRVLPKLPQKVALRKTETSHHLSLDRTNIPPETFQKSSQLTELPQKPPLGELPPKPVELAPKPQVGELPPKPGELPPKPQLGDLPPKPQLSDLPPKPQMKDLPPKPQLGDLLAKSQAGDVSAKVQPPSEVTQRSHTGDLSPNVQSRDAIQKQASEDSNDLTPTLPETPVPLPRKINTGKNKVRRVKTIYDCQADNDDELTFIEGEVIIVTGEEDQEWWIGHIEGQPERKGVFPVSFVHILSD
UniProt Q9JMC3: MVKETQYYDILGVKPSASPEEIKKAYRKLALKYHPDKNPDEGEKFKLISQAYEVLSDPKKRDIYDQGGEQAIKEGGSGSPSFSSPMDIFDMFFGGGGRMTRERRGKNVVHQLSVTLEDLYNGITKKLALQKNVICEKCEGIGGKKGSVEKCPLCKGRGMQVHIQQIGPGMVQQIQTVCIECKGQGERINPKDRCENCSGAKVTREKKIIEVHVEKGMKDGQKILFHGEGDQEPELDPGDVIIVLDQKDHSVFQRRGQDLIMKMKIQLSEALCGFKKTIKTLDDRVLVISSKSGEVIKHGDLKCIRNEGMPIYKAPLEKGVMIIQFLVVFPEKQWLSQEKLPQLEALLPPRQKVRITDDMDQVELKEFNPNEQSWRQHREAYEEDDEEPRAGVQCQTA
UniProt Q9ET22, whole entry: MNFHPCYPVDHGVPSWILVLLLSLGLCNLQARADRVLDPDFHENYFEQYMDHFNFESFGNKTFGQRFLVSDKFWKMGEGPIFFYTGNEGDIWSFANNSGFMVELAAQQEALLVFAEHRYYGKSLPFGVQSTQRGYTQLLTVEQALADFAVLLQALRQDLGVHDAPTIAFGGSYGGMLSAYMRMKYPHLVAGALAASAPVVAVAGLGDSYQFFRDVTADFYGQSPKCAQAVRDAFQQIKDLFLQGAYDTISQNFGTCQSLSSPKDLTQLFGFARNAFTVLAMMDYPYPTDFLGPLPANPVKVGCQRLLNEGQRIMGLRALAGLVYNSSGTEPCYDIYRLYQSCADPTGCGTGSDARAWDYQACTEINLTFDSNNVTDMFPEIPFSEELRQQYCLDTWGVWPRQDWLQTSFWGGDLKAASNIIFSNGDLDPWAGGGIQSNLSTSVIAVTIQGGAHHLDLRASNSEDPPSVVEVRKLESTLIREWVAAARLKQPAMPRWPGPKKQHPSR

The other results are listed elsewhere or left out. Most entries show no effect beyond the scatter of the controls.

Compound in this assay: CN[C@@H]1C[C@H]2O[C@@](C)([C@@H]1OC)n1c3ccccc3c3c4c(c5c6ccccc6n2c5c31)C(=O)NC4 [staurosporine]
Nature of the assay: log2 fold change of tryptic peptide abundance, ligand vs vehicle (limited proteolysis) (log2 ratio); higher = more trypsin-susceptible (destabilized). Conditions: ligand concentration: 20 uM; sample: mouse liver crude lysate; replicate design: treated separately.
In the case of “UniProt Q9QWK4 (peptide sequence: VEVLHQSQWSTVCK, peptide start residue: 154)”, the log2 fold change is -0.562.

Regarding “UniProt Q9QWY8 (peptide sequence: NGILTISHATSNR, peptide start residue: 366)”, the log2 fold change stood at 0.331.

In the case of “UniProt Q9JMC3 (peptide sequence: ITDDMDQVELK, peptide start residue: 355)”, the log2 fold change stood at 0.159.

Consider “UniProt Q9ET22 (peptide sequence: KLESTLIR, peptide start residue: 473)”, for which the log2 fold change amounted to 0.135.
